# According to BindingDB's records for doi:10.1021/acs.jmedchem.1c00439 (University of Tennessee Health Science Center, 2021):
# pKi: −log10 of the molar value.
# Target: T1, Androgen receptor (Rattus norvegicus, UniProt P15207)
# T1 sequence (P15207 whole entry): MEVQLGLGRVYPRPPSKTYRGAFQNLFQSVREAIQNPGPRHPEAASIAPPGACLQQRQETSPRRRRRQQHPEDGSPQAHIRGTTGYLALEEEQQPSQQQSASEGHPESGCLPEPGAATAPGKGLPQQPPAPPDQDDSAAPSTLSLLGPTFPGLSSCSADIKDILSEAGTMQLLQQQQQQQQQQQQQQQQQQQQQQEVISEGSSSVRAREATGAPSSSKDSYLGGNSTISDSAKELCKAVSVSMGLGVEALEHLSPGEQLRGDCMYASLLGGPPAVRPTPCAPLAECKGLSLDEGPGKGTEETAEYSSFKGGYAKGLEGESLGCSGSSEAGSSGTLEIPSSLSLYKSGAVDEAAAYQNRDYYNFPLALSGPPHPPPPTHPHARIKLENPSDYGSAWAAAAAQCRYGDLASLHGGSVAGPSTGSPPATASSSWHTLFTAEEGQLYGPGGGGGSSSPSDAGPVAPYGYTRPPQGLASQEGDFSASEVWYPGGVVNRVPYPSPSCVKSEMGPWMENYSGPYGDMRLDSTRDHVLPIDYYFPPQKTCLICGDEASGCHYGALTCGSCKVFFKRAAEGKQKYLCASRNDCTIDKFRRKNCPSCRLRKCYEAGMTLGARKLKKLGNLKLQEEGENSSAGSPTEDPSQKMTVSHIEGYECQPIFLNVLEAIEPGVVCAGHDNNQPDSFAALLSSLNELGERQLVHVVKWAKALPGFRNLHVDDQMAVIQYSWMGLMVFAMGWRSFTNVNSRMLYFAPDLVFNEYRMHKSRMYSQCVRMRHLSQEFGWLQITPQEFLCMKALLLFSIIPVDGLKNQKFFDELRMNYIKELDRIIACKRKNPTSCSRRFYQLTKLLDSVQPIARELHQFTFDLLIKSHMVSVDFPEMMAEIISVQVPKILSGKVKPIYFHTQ
compound,measurement,value
C[C@](O)(CCc1ccc(Br)cc1)C(=O)Nc1ccc(C#N)c(C(F)(F)F)c1,pKi,6.60
C[C@](O)(CCc1ccc(C#N)cc1)C(=O)Nc1ccc(C#N)c(C(F)(F)F)c1,pKi,6.05
